Reference: the supplement of paper PMC12024529
Structures can show the parent of a compound that is named as a salt. The list shows a part of the results. Part of the spread comes from offsets between plates or batches.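 Wild-type or misfolding-prone missense mutant B-domain-deleted factor VIII, fused to Gaussia luciferase, is stably expressed in HEK293 lines. Each score is (mean triplicate-well luminescence minus DMSO mean) divided by DMSO standard deviation. Hits score at least 2; lower scores could stem from decreased secretion or poorer cell viability.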

Columns and labels:
HEK293 WT BDD-FVIII-Gluc = test: secreted FVIII-Gluc luciferase Z-score vs DMSO control; higher = more FVIII-Gluc secretion; settings: 5 µM; 24 h
[1] = system: HEK293 p.N1941S BDD-FVIII-Gluc; test: as above; settings: 5 µM; 24 h

Row | SMILES | secreted FVIII-Gluc luciferase Z-score (HEK293 WT BDD-FVIII-Gluc) | secreted FVIII-Gluc luciferase Z-score [1]
1 | CN1CC2c3ccccc3Oc3ccc(Cl)cc3C2C1 (configuration not stated) [Asenapine] | inactive: -1.09 | inactive: -7.36
2 | CC1=C(C(=O)OC(C)C)C(c2cccc([N+](=O)[O-])c2)C(C(=O)OC2CN(C(c3ccccc3)c3ccccc3)C2)=C(N)N1 (configuration not stated) [Azelnidipine] | inactive: -2.95 | inactive: -0.0634
3 | N[C@@H](Cc1cc(I)c(Oc2cc(I)c(O)c(I)c2)c(I)c1)C(=O)O [L-Thyroxine] | inactive: 0.928 | inactive: 0.435
4 | CO[C@H]1/C=C/O[C@@]2(C)Oc3c(C)c(O)c4c(O)c(c(/C=N/N5CCN(C6CCCC6)CC5)c(O)c4c3C2=O)NC(=O)/C(C)=C\C=C\[C@H](C)[C@H](O)[C@@H](C)[C@@H](O)[C@@H](C)[C@H](OC(C)=O)[C@@H]1C [Rifapentine (Priftin)] | inactive: -1.39 | inactive: -1.45
5 | CC(C)(C)CC(C)(C)c1ccc(O)c(Cc2ccc(Cl)cc2Cl)c1 [Clofoctol] | inactive: -1.51 | inactive: 1.48
6 | NS(=O)(=O)c1cc2c(cc1Cl)N=CNS2(=O)=O [Chlorothiazide] | inactive: -1.07 | inactive: 0.0286
7 | CC1CCc2cc(F)cc3c(=O)c(C(=O)O)cn1c23 (configuration not stated) [Flumequine] | inactive: -0.707 | inactive: -0.839
8 | Fc1ccc([C@@H]2CCNC[C@H]2COc2ccc3c(c2)OCO3)cc1 [Paroxetine HCl] | inactive: -4.31 | inactive: -0.711
9 | N#Cc1ccc(C(c2ccc(C#N)cc2)n2cncn2)cc1 [Letrozole] | inactive: -0.946 | inactive: -0.796
10 | CCC(=O)NCC[C@@H]1CCc2ccc3c(c21)CCO3 [Ramelteon (TAK-375)] | active: 2.22 | inactive: 0.775
11 | O=C(O)C[C@H](O)C[C@H](O)/C=C/c1c(C2CC2)nc2ccccc2c1-c1ccc(F)cc1 [Pitavastatin calcium (Livalo)] | inactive: -7.76 | inactive: -4.25
12 | CNC(=O)c1ccc(N2C(=S)N(c3ccc(C#N)c(C(F)(F)F)c3)C(=O)C2(C)C)cc1F [MDV3100 (Enzalutamide)] | inactive: 1.42 | inactive: -0.411
13 | CC(C(=O)O)c1ccc(-c2ccccc2)c(F)c1 (configuration not stated) [Flurbiprofen (Ansaid)] | inactive: -1.4 | inactive: 0.0738
14 | COc1ccc2[nH]c([S+]([O-])Cc3ncc(C)c(OC)c3C)nc2c1 (configuration not stated) [Omeprazole (Prilosec)] | inactive: -2.92 | inactive: -0.905
15 | Nc1nc(CC(=O)Nc2ccc(CCNC[C@H](O)c3ccccc3)cc2)cs1 [Mirabegron (YM178)] | inactive: -0.676 | inactive: 0.72
16 | Cc1c(OCC(F)(F)F)ccnc1C[S@@+]([O-])c1nc2ccccc2[nH]1 [Dexlansoprazole] | active: 3.38 | inactive: -0.236

Fetched by structure from the entries so far, two records:
Row | SMILES | secreted FVIII-Gluc luciferase Z-score (HEK293 WT BDD-FVIII-Gluc) | secreted FVIII-Gluc luciferase Z-score [1]
10 | CCC(=O)NCC[C@@H]1CCc2ccc3c(c21)CCO3 [Ramelteon (TAK-375)] | active: 2.22 | inactive: 0.775
14 | COc1ccc2[nH]c([S+]([O-])Cc3ncc(C)c(OC)c3C)nc2c1 (configuration not stated) [Omeprazole (Prilosec)] | inactive: -2.92 | inactive: -0.905

The results go on:

Row | SMILES | secreted FVIII-Gluc luciferase Z-score (HEK293 WT BDD-FVIII-Gluc) | secreted FVIII-Gluc luciferase Z-score [1]
17 | O=C(NCCO[N+](=O)[O-])c1cccnc1 [Nicorandil (Ikorel)] | inactive: -1.89 | inactive: -3.61
18 | C1N2CN3CN1CN(C2)C3 [Methenamine (Mandelamine)] | inactive: -0.652 | inactive: -0.268
19 | OCCOCCN1CCN(C2=Nc3ccccc3Sc3ccccc32)CC1 [Quetiapine fumarate (Seroquel)] | inactive: -1.48 | inactive: 0.0379
20 | Nc1nccs1 [Aminothiazole] | inactive: -0.369 | inactive: 1.02
21 | CCCCNc1cc(C(=O)O)cc(S(N)(=O)=O)c1Oc1ccccc1 [Bumetanide] | inactive: 0.547 | inactive: -6.52
22 | C=C1/C(=C\C=C2/CCC[C@]3(C)[C@@H]([C@H](C)CCCC(C)(C)O)CC[C@@H]23)C[C@@H](O)C[C@@H]1O [Calcitriol (Rocaltrol)] | inactive: -3.52 | inactive: 0.39
23 | CCOc1nc2cccc(C(=O)O)c2n1Cc1ccc(-c2ccccc2-c2noc(=O)[nH]2)cc1 [Azilsartan (TAK-536)] | inactive: 0.768 | inactive: 0.127
24 | O=c1c(-c2ccc(O)cc2)coc2cc(O)cc(O)c12 [Genistein] | inactive: -3.43 | inactive: 1.46
25 | CN(C)CCc1c[nH]c2ccc(CS(=O)(=O)N3CCCC3)cc12 [Almotriptan malate (Axert)] | inactive: -0.664 | inactive: -1.75
26 | CC(C)C(=O)Oc1ccc(CO)cc1[C@H](CCN(C(C)C)C(C)C)c1ccccc1 [Fesoterodine fumarate (Toviaz)] | inactive: -0.041 | inactive: -1.83
27 | CN(C)c1ccc(C(=C2C=CC(=[N+](C)C)C=C2)c2ccc(N(C)C)cc2)cc1 [Crystal violet] | inactive: -7.98 | inactive: -10.6
28 | COc1cc2c(cc1Cc1cccc(Cl)c1F)c(=O)c(C(=O)O)cn2[C@H](CO)C(C)C [Elvitegravir (GS-9137)] | inactive: -2.33 | inactive: -1.08
29 | CO[C@H]1C[C@@H]2CC[C@@H](C)[C@@](O)(O2)C(=O)C(=O)N2CCCC[C@H]2C(=O)O[C@H]([C@H](C)C[C@@H]2CC[C@@H](O)[C@H](OC)C2)CC(=O)[C@H](C)/C=C(\C)[C@@H](O)[C@@H](OC)C(=O)[C@H](C)C[C@H](C)/C=C/C=C/C=C/1C [Rapamycin (Sirolimus)] | inactive: -1.34 | inactive: -5.96
30 | Oc1ccc(OC2CCCCO2)cc1 (configuration not stated) [Deoxyarbutin] | inactive: 0.517 | inactive: -1.59
31 | CCCCC1C(=O)N(c2ccccc2)N(c2ccccc2)C1=O [Phenylbutazone (Butazolidin, Butatron)] | inactive: -4.04 | inactive: -1.04
